Assay [1] deals with mouse NSD2, GFP-tagged (Nsd2-GFP construct for in vitro transfection) (mouse) (UniProt Q8BVE8). As to the kind of experiment: co-IP.
Assay [2] has as its target T1, Drosophila Nsd, GFP-tagged (nsd-GFP construct for in vitro transfection) (Drosophila) (UniProt Q8MT36).
T1 sequence: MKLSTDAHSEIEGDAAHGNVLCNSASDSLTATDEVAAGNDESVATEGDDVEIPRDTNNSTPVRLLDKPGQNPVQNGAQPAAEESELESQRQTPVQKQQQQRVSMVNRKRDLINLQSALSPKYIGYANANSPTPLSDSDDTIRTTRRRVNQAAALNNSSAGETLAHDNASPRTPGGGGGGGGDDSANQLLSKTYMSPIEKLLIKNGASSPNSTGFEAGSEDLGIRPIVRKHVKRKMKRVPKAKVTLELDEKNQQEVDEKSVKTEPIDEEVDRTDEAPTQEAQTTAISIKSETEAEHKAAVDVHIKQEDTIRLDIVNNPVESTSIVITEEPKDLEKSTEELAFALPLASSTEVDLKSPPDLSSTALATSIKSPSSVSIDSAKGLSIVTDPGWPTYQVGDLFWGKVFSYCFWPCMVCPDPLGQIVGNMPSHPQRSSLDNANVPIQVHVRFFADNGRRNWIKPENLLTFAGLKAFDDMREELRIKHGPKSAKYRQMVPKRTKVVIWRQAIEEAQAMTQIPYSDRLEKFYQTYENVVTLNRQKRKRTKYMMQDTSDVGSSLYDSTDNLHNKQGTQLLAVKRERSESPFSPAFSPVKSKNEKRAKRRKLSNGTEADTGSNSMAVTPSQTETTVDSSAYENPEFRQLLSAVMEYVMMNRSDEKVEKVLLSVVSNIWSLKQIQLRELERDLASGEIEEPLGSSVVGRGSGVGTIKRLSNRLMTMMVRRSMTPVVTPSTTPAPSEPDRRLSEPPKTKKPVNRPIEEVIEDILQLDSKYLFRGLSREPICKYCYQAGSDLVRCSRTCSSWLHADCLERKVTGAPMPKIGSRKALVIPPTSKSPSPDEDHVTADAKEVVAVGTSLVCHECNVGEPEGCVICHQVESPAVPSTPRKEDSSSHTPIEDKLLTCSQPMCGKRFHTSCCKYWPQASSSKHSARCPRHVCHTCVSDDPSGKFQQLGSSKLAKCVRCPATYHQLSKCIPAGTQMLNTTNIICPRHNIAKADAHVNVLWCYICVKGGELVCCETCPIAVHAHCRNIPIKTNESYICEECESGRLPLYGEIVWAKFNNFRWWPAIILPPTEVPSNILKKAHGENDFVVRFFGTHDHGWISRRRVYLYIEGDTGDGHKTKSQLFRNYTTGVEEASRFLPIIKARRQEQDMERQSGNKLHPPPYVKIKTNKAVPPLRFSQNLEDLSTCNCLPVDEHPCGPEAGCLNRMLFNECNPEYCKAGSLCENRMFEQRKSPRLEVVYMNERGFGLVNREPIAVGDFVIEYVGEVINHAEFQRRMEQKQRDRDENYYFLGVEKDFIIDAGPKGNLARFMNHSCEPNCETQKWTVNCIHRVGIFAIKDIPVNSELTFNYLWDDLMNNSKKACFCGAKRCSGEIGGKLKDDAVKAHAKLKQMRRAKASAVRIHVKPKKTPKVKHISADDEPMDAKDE
The assay can be described thus: co-IP.

Protein sequences, listed by entry. Tags and fused reporters are not part of them.
UniProt Q8BVE8: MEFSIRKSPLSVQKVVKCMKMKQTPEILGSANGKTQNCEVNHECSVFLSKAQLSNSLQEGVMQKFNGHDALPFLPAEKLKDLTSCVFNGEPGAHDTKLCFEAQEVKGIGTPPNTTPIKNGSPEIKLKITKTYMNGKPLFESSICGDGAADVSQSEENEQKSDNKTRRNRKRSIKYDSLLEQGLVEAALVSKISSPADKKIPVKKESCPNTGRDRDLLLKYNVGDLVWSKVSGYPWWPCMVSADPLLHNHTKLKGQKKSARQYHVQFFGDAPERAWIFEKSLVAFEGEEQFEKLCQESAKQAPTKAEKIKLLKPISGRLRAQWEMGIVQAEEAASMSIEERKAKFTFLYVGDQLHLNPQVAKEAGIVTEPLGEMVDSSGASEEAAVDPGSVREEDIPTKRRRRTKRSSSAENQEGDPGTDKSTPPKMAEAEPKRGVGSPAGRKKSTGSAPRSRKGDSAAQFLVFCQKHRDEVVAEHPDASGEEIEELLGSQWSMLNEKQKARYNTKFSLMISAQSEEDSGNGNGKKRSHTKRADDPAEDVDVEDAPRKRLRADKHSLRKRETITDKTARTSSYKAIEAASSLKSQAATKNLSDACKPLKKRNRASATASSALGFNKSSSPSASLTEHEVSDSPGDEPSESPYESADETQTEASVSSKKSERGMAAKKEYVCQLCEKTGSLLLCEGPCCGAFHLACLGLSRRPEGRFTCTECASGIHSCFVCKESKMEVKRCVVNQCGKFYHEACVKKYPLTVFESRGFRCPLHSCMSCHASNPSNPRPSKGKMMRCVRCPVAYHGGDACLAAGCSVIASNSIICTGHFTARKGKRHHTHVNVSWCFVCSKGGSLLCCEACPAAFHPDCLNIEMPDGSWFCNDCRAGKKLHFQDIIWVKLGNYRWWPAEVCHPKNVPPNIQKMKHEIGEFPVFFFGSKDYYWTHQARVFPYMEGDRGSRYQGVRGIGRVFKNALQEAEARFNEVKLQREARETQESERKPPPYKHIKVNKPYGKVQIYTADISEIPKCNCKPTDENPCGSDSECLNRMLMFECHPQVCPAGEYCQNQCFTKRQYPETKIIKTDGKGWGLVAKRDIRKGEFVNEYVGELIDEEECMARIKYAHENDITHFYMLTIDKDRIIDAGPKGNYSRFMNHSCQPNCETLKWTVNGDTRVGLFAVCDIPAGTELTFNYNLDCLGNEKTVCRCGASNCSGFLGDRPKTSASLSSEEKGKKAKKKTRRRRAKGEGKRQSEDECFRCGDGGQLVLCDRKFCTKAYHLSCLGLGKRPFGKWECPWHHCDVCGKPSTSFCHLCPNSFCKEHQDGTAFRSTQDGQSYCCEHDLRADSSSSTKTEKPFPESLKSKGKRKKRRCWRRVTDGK
UniProt P43274: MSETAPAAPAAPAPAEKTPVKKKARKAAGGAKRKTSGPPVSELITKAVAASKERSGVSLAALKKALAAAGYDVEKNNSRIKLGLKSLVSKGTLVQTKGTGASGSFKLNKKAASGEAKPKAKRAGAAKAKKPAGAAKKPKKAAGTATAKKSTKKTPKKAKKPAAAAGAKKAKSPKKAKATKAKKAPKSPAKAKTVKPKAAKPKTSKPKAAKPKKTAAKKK

These are yes or no findings as the source states them, for the method shown. In cells and extracts the contact can be indirect. Some binding calls cover weakened binding; strength is not graded here. For some assays here: Sequences can lack the tags named with a protein.

On to “mouse linker histone HIST1H1E, FLAG-tagged (Hist1h1e-FLAG) (from UniProt P43274 1-219)”, for which the binding result in assay [1] is “no binding”.

B1: Drosophila linker histone H1 (His1), FLAG-tagged (his1-FLAG construct for in vitro transfection) (protein, UniProt P02255 1-256)
chain: MSDSAVATSASPVAAPPATVEKKVVQKKASGSAGTKAKKASATPSHPPTQQMVDASIKNLKERGGSSLLAIKKYITATYKCDAQKLAPFIKKYLKSAVVNGKLIQTKGKGASGSFKLSASAKKEKDPKAKSKVLSAEKKVQSKKVASKKIGVSSKKTAVGAADKKPKAKKAVATKKTAENKKTEKAKAKDAKKTGIIKSKPAATKAKVTAAKPKAVVAKASKAKPAVSAKPKKTVKKASVSATAKKPKAKTTAAKK
Turning to B1, the binding entry in assay [2] is given as “binds”.

These data come from paper doi:10.1101/2025.02.07.636160.
